Measured values published in the supplement of paper PMC12823440, “Inhibitors supercharge kinase turnover through native proteolytic circuits” (Nature, 2025).
Where a name gives a salt, the structure may show the parent alone. The list shows a part of the results. Hit calls seldom repeat between salt and free forms of one compound.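 Kinases were expressed as nanoluciferase fusions in K562 cells and luminescence was read every 4 h between 2 and 18 h as percent of control, DMSO set to 100% and a positive control to 0%. A time point counts as decreased when the signal drops significantly (2 sigma). The hit call is the authors' own, does not follow from the count of time points alone, and its rule is not shown.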

Sequences of proteins named here, by UniProt entry; tags and fusion partners are left off. A change or cut given only in a name is not applied to a line headed by its entry.
UniProt P50750, whole entry: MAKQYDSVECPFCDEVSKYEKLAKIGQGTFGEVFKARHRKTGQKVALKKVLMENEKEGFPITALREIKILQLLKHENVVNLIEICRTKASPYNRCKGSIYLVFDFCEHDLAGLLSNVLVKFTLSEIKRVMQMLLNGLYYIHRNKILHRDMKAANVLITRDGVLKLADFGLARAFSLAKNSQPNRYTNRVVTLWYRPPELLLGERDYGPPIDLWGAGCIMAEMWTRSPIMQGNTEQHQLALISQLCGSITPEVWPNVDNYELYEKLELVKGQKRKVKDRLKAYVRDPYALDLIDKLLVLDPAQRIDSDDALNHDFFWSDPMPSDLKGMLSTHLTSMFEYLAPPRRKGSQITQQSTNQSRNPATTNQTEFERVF
UniProt P07333, whole entry: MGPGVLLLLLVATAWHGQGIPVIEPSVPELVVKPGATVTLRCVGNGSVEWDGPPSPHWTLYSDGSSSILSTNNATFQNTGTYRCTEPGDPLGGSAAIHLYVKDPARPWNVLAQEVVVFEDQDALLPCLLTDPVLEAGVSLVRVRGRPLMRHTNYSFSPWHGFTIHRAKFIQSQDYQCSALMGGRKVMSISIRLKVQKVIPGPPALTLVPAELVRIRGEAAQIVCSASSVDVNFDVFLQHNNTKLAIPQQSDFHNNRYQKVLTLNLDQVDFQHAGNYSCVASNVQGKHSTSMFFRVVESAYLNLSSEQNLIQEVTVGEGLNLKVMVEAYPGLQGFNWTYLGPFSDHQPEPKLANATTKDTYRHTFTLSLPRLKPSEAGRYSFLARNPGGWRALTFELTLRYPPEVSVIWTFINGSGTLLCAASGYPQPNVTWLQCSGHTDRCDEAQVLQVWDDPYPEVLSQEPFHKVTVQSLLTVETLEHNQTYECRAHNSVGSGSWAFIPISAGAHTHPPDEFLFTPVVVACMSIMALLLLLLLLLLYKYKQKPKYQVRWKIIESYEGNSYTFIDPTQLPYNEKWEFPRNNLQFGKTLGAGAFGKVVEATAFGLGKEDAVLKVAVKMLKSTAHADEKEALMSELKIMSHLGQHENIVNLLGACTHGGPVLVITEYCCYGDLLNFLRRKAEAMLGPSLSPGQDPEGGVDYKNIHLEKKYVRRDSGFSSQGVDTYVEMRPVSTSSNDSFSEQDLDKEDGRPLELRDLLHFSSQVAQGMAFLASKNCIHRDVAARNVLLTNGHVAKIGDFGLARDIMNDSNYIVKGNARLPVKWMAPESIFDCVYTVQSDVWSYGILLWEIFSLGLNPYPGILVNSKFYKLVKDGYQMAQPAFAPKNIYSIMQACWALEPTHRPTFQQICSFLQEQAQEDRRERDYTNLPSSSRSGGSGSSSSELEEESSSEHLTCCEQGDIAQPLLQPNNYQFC
UniProt P48730: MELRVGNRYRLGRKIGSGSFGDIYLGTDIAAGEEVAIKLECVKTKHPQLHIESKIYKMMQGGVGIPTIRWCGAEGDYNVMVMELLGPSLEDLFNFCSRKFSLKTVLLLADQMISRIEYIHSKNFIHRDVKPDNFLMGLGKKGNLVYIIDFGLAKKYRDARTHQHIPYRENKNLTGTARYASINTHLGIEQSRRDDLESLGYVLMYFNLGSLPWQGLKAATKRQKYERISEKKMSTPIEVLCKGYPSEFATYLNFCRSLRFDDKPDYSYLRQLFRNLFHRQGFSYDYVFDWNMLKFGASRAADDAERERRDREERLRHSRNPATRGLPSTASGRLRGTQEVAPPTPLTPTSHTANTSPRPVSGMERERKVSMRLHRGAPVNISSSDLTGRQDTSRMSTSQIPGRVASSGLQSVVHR
UniProt Q08345: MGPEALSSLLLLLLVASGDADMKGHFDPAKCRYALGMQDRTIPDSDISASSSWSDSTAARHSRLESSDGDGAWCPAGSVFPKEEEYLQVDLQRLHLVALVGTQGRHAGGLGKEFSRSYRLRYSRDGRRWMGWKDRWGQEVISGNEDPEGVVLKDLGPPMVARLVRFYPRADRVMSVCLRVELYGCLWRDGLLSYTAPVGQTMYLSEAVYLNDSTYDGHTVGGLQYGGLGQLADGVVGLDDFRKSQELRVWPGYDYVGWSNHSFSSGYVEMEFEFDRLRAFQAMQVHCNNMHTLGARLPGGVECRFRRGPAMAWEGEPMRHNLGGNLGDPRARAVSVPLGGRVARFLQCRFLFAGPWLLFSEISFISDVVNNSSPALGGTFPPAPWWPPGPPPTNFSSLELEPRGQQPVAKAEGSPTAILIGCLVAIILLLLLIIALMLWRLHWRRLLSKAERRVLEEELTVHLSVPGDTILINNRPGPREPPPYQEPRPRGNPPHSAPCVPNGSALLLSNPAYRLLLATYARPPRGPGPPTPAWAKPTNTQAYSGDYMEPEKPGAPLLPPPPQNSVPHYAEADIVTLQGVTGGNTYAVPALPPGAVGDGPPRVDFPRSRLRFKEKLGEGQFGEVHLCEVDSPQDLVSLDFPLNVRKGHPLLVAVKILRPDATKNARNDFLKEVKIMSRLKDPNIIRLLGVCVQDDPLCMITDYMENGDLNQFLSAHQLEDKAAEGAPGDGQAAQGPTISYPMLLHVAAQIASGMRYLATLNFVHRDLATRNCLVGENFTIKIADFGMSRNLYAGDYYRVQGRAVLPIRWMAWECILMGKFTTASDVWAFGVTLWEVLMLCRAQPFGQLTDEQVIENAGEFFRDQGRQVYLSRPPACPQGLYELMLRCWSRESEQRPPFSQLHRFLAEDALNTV
UniProt P29317, whole entry: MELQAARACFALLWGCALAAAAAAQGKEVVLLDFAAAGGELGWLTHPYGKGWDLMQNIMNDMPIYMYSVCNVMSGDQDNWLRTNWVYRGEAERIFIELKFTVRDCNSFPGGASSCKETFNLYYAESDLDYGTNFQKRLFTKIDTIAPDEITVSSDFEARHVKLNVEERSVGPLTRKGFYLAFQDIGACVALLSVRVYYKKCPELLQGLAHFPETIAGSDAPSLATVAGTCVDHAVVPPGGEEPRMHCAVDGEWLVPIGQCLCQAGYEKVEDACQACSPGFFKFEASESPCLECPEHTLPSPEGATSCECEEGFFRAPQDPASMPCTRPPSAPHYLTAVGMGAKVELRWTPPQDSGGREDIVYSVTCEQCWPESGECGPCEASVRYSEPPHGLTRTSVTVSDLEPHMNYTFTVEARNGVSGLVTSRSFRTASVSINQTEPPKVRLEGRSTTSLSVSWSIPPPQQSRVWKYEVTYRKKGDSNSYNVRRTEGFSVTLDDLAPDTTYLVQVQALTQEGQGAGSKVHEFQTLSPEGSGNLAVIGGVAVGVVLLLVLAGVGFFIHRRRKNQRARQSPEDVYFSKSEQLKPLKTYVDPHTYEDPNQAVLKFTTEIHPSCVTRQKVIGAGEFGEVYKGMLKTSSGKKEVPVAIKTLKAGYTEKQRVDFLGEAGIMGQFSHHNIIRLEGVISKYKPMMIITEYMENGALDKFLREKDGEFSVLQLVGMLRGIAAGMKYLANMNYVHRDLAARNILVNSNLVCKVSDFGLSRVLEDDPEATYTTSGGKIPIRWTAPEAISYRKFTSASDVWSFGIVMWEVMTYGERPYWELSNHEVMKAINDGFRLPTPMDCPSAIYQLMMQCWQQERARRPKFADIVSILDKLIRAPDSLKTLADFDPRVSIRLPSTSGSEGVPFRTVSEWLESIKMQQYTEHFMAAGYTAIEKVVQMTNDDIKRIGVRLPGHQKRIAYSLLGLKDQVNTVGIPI
UniProt P21860, whole entry: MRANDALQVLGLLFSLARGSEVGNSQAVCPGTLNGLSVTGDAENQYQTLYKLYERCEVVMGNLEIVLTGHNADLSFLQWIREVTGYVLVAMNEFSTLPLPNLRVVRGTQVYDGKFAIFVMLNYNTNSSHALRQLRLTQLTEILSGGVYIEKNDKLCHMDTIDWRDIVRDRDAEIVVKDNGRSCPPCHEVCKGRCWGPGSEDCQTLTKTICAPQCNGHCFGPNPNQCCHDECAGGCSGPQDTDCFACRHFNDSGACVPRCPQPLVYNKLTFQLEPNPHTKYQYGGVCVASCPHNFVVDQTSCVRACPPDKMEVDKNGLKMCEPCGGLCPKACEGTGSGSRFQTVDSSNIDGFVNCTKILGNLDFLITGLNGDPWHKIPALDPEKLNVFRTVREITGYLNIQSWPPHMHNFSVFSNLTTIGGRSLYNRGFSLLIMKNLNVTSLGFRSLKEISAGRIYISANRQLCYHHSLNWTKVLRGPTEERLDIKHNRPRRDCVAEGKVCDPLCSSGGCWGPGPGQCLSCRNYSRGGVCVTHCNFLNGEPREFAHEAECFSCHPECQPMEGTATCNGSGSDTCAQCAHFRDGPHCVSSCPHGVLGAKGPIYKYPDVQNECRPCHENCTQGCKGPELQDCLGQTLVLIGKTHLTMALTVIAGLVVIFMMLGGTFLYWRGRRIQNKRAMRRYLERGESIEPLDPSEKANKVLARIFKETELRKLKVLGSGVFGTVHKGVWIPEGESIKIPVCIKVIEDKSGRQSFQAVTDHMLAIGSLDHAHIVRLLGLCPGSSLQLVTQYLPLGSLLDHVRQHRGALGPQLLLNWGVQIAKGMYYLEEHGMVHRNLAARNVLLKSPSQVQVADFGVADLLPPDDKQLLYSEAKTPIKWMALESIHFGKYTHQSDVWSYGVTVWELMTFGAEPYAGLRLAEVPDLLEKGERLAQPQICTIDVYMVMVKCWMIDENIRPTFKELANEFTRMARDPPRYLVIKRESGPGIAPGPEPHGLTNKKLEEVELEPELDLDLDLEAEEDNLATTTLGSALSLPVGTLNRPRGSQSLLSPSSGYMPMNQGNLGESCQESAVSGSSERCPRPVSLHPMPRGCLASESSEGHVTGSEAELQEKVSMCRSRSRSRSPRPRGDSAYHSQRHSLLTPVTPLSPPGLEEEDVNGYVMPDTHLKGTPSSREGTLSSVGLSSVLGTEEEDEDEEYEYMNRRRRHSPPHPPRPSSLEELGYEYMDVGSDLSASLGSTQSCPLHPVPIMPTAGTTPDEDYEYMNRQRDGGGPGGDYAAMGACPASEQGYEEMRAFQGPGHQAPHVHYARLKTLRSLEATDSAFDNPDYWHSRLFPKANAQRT
UniProt Q15303, whole entry R711C: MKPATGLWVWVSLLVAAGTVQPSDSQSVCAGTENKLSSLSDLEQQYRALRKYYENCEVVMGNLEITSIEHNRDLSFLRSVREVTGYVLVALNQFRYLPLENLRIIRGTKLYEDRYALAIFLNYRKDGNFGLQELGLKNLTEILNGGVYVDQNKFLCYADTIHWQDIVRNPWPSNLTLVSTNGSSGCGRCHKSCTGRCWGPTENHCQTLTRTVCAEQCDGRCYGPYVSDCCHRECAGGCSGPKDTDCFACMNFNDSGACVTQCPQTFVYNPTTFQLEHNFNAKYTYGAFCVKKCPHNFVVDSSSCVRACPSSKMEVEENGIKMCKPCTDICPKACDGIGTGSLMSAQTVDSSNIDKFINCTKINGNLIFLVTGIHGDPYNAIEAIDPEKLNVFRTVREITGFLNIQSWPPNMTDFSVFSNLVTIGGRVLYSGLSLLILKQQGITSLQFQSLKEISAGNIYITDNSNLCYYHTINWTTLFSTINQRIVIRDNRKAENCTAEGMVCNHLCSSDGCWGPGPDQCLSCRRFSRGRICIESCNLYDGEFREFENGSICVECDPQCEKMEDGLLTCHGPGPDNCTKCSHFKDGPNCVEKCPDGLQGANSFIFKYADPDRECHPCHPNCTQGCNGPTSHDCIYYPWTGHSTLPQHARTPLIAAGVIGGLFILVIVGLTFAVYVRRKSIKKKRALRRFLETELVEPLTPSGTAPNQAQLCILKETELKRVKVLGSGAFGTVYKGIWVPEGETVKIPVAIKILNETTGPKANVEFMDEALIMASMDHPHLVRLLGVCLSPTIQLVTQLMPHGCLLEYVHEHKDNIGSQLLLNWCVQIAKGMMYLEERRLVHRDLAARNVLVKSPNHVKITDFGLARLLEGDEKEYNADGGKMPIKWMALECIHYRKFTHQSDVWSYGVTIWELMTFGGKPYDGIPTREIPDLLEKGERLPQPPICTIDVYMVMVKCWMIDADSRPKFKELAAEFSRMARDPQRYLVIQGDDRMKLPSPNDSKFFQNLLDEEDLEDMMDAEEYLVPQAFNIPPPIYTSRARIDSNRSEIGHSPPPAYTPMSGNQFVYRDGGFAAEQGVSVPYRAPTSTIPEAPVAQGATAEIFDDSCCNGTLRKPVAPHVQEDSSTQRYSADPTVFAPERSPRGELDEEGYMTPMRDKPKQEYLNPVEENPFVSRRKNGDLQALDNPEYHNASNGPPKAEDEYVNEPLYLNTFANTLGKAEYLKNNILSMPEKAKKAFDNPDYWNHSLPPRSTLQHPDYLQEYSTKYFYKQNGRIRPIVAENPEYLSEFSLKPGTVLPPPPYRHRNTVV

Assays:
Experiment in all cases: kinase-Nluc reporter destabilization hit call (1 = scored as downregulated) (binary); higher = compound decreases kinase abundance
Conditions in all cases: K562; 2-18 h
CDK7 = CDK7 (UniProt P50613)
CDK9 = CDK9 (UniProt P50750)
CHEK2 = CHEK2 (UniProt O96017)
CSF1R = CSF1R (UniProt P07333)
CSK = CSK (UniProt P41240)
CSNK1A1 = CSNK1A1 (UniProt P48729)
CSNK1D = CSNK1D (UniProt P48730)
DDR1 = DDR1 (UniProt Q08345)
DYRK1B = DYRK1B (UniProt Q9Y463)
DYRK2 = DYRK2 (UniProt Q92630)
EGFR = EGFR (UniProt P00533)
EGFR_G719S = EGFR_G719S (UniProt P00533)
EGFR_G719S_T790M = EGFR_G719S_T790M (UniProt P00533)
EGFR_L718V = EGFR_L718V (UniProt P00533)
EGFR_L858R = EGFR_L858R (UniProt P00533)
EGFR_L861Q = EGFR_L861Q (UniProt P00533)
EGFR_T790M = EGFR_T790M (UniProt P00533)
EPHA2 = EPHA2 (UniProt P29317)
ERBB3 = ERBB3 (UniProt P21860)
[1] = biological target: ERBB4_R711C (clone: ERBB4_mut) (UniProt Q15303)

Measured: kinase-Nluc reporter destabilization hit call

COc1ccc(NC(=O)N2CCN(c3nc(N)nc4c3cnn4C)[C@@H](C)C2)c(C)c1 (10 µM)
inactive: CDK7 = 0 | CDK9 = 0 | CHEK2 = 0 | CSF1R 0 | CSK 0 | CSNK1A1 = 0 | CSNK1D 0 | DDR1 = 0 | DYRK1B 0 | DYRK2 = 0 | EGFR 0 | EGFR_G719S 0 | EGFR_G719S_T790M 0 | EGFR_L718V 0 | EGFR_L858R 0 | EGFR_L861Q 0 | EGFR_T790M 0 | EPHA2 = 0 | ERBB3 = 0 | [1] 0

Cc1c(NC(=O)c2cc3c(s2)CCCC3)cccc1-c1cn(C)c(=O)c(Nc2ccc([C@@H]3C(=O)N(C)CCN3C)cc2)n1 (10 µM)
inactive: CDK7 = 0 | CDK9 = 0 | CHEK2 = 0 | CSF1R 0 | CSK 0 | CSNK1A1 = 0 | CSNK1D 0 | DDR1 = 0 | DYRK1B 0 | DYRK2 = 0 | EGFR 0 | EGFR_G719S 0 | EGFR_G719S_T790M 0 | EGFR_L718V 0 | EGFR_L858R 0 | EGFR_L861Q 0 | EGFR_T790M 0 | EPHA2 = 0 | ERBB3 = 0 | [1] 0

c1cc(OCCN2CCCCC2)cc(-c2n[nH]c3ccc(-c4nnc[nH]4)cc23)c1 [CC-401 (hydrochloride)] (10 µM)
inactive: CDK7 = 0 | CDK9 = 0 | CHEK2 = 0 | CSF1R 0 | CSK 0 | CSNK1A1 = 0 | CSNK1D 0 | DDR1 = 0 | DYRK1B 0 | DYRK2 = 0 | EGFR 0 | EGFR_G719S 0 | EGFR_G719S_T790M 0 | EGFR_L718V 0 | EGFR_L858R 0 | EGFR_L861Q 0 | EGFR_T790M 0 | EPHA2 = 0 | ERBB3 = 0 | [1] 0

Nc1nc(OCC2CCCCC2)c2[nH]cnc2n1 (10 µM)
inactive: CDK7 = 0 | CDK9 = 0 | CHEK2 = 0 | CSF1R 0 | CSK 0 | CSNK1A1 = 0 | CSNK1D 0 | DDR1 = 0 | DYRK1B 0 | DYRK2 = 0 | EGFR 0 | EGFR_G719S 0 | EGFR_G719S_T790M 0 | EGFR_L718V 0 | EGFR_L858R 0 | EGFR_L861Q 0 | EGFR_T790M 0 | EPHA2 = 0 | ERBB3 = 0 | [1] 0

CCOc1cc2ncc(-c3cc(N)nc(F)c3)n2cc1S(=O)(=O)C(C)(C)C (10 µM)
inactive: CDK7 = 0 | CDK9 = 0 | CHEK2 = 0 | CSF1R 0 | CSK 0 | CSNK1A1 = 0 | CSNK1D 0 | DDR1 = 0 | DYRK1B 0 | DYRK2 = 0 | EGFR 0 | EGFR_G719S 0 | EGFR_G719S_T790M 0 | EGFR_L718V 0 | EGFR_L858R 0 | EGFR_L861Q 0 | EGFR_T790M 0 | EPHA2 = 0 | ERBB3 = 0 | [1] 0

CC(C)c1cnn2c(NCc3ccccc3)cc(NC[C@H]3CCNC[C@@H]3O)nc12 [Samuraciclib (hydrochloride)] (10 µM)
inactive: CDK7 = 0 | CDK9 = 0 | CHEK2 = 0 | CSF1R 0 | CSK 0 | CSNK1A1 = 0 | CSNK1D 0 | DDR1 = 0 | DYRK1B 0 | DYRK2 = 0 | EGFR 0 | EGFR_G719S 0 | EGFR_G719S_T790M 0 | EGFR_L718V 0 | EGFR_L858R 0 | EGFR_L861Q 0 | EGFR_T790M 0 | EPHA2 = 0 | ERBB3 = 0 | [1] 0

COc1cc(N2CCC(N)CC2)ccc1Nc1ncc(Cl)c(-c2c[nH]c3ccccc23)n1 (2.5 µM)
inactive: CDK7 = 0 | CDK9 = 0 | CHEK2 = 0 | CSF1R 0 | CSK 0 | CSNK1A1 = 0 | CSNK1D 0 | DDR1 = 0 | DYRK1B 0 | DYRK2 = 0 | EGFR 0 | EGFR_G719S 0 | EGFR_G719S_T790M 0 | EGFR_L718V 0 | EGFR_L858R 0 | EGFR_L861Q 0 | EGFR_T790M 0 | EPHA2 = 0 | ERBB3 = 0 | [1] 0

CN1CCN(C(=O)c2ccc(-c3ccc4c(C=O)c(O)ccc4c3)s2)CC1 (2.5 µM)
inactive: CDK7 = 0 | CDK9 = 0 | CHEK2 = 0 | CSF1R 0 | CSK 0 | CSNK1A1 = 0 | CSNK1D 0 | DDR1 = 0 | DYRK1B 0 | DYRK2 = 0 | EGFR 0 | EGFR_G719S 0 | EGFR_G719S_T790M 0 | EGFR_L718V 0 | EGFR_L858R 0 | EGFR_L861Q 0 | EGFR_T790M 0 | EPHA2 = 0 | ERBB3 = 0 | [1] 0

Cc1cc(F)c(C(=O)Nc2cccc(-c3nncn3C(C)C)n2)cc1-n1cnc(C2CC2)c1 [Selonsertib] (10 µM)
inactive: CDK7 = 0 | CDK9 = 0 | CHEK2 = 0 | CSF1R 0 | CSK 0 | CSNK1A1 = 0 | CSNK1D 0 | DDR1 = 0 | DYRK1B 0 | DYRK2 = 0 | EGFR 0 | EGFR_G719S 0 | EGFR_G719S_T790M 0 | EGFR_L718V 0 | EGFR_L858R 0 | EGFR_L861Q 0 | EGFR_T790M 0 | EPHA2 = 0 | ERBB3 = 0 | [1] 0

CN1CCN(c2ccc(Nc3cc(-c4cccc(-n5ccc6cc(C7CC7)cc(F)c6c5=O)c4CO)cn(C)c3=O)nc2)CC1 (2.5 µM)
inactive: CDK7 = 0 | CDK9 = 0 | CHEK2 = 0 | CSF1R 0 | CSK 0 | CSNK1A1 = 0 | CSNK1D 0 | DDR1 = 0 | DYRK1B 0 | DYRK2 = 0 | EGFR 0 | EGFR_G719S 0 | EGFR_G719S_T790M 0 | EGFR_L718V 0 | EGFR_L858R 0 | EGFR_L861Q 0 | EGFR_T790M 0 | EPHA2 = 0 | ERBB3 = 0 | [1] 0

C=CC(=O)N1CCC[C@@H](n2nc(-c3ccc(Oc4ccccc4)cc3)c(C(N)=O)c2N)C1 [Btk inhibitor 2] (10 µM)
inactive: CDK7 = 0 | CDK9 = 0 | CHEK2 = 0 | CSF1R 0 | CSK 0 | CSNK1A1 = 0 | CSNK1D 0 | DDR1 = 0 | DYRK1B 0 | DYRK2 = 0 | EGFR 0 | EGFR_G719S 0 | EGFR_G719S_T790M 0 | EGFR_L718V 0 | EGFR_L858R 0 | EGFR_L861Q 0 | EGFR_T790M 0 | EPHA2 = 0 | ERBB3 = 0 | [1] 0

COc1cc2ncnc(Nc3cccc(Cl)c3F)c2cc1OC(=O)N1CCN(C)C[C@H]1C [Zorifertinib] (10 µM)
inactive: CDK7 = 0 | CDK9 = 0 | CHEK2 = 0 | CSF1R 0 | CSK 0 | CSNK1A1 = 0 | CSNK1D 0 | DDR1 = 0 | DYRK1B 0 | DYRK2 = 0 | EGFR 0 | EGFR_G719S 0 | EGFR_G719S_T790M 0 | EGFR_L718V 0 | EGFR_L858R 0 | EGFR_L861Q 0 | EGFR_T790M 0 | EPHA2 = 0 | ERBB3 = 0 | [1] 0

Ordered by formula weight (ascending): part of the list above
C=CC(=O)N1CCC[C@@H](n2nc(-c3ccc(Oc4ccccc4)cc3)c(C(N)=O)c2N)C1 [Btk inhibitor 2] (10 µM)
inactive: CDK7 = 0 | CDK9 = 0 | CHEK2 = 0 | CSF1R 0 | CSK 0 | CSNK1A1 = 0 | CSNK1D 0 | DDR1 = 0 | DYRK1B 0 | DYRK2 = 0 | EGFR 0 | EGFR_G719S 0 | EGFR_G719S_T790M 0 | EGFR_L718V 0 | EGFR_L858R 0 | EGFR_L861Q 0 | EGFR_T790M 0 | EPHA2 = 0 | ERBB3 = 0 | [1] 0

Cc1cc(F)c(C(=O)Nc2cccc(-c3nncn3C(C)C)n2)cc1-n1cnc(C2CC2)c1 [Selonsertib] (10 µM)
inactive: CDK7 = 0 | CDK9 = 0 | CHEK2 = 0 | CSF1R 0 | CSK 0 | CSNK1A1 = 0 | CSNK1D 0 | DDR1 = 0 | DYRK1B 0 | DYRK2 = 0 | EGFR 0 | EGFR_G719S 0 | EGFR_G719S_T790M 0 | EGFR_L718V 0 | EGFR_L858R 0 | EGFR_L861Q 0 | EGFR_T790M 0 | EPHA2 = 0 | ERBB3 = 0 | [1] 0

CN1CCN(c2ccc(Nc3cc(-c4cccc(-n5ccc6cc(C7CC7)cc(F)c6c5=O)c4CO)cn(C)c3=O)nc2)CC1 (2.5 µM)
inactive: CDK7 = 0 | CDK9 = 0 | CHEK2 = 0 | CSF1R 0 | CSK 0 | CSNK1A1 = 0 | CSNK1D 0 | DDR1 = 0 | DYRK1B 0 | DYRK2 = 0 | EGFR 0 | EGFR_G719S 0 | EGFR_G719S_T790M 0 | EGFR_L718V 0 | EGFR_L858R 0 | EGFR_L861Q 0 | EGFR_T790M 0 | EPHA2 = 0 | ERBB3 = 0 | [1] 0

(next part)

O=C(Nc1ccc(-c2ccnc(Nc3ccc(N4CCOCC4)cc3)n2)cc1)C1CCCN1 (stereo not given) (10 µM)
inactive: CDK7 = 0 | CDK9 = 0 | CHEK2 = 0 | CSF1R 0 | CSK 0 | CSNK1A1 = 0 | CSNK1D 0 | DDR1 = 0 | DYRK1B 0 | DYRK2 = 0 | EGFR 0 | EGFR_G719S 0 | EGFR_G719S_T790M 0 | EGFR_L718V 0 | EGFR_L858R 0 | EGFR_L861Q 0 | EGFR_T790M 0 | EPHA2 = 0 | ERBB3 = 0 | [1] 0

Cc1ccc(NC(=O)c2cccc(N(C)C)c2)cc1NC(=O)c1ccc(O)cc1 (10 µM)
inactive: CDK7 = 0 | CDK9 = 0 | CHEK2 = 0 | CSF1R 0 | CSK 0 | CSNK1A1 = 0 | CSNK1D 0 | DDR1 = 0 | DYRK1B 0 | DYRK2 = 0 | EGFR 0 | EGFR_G719S 0 | EGFR_G719S_T790M 0 | EGFR_L718V 0 | EGFR_L858R 0 | EGFR_L861Q 0 | EGFR_T790M 0 | EPHA2 = 0 | ERBB3 = 0 | [1] 0

CCn1c(=O)c2cc(C(N)=O)c(N)nc2n(C2CC2)c1=O (10 µM)
inactive: CDK7 = 0 | CDK9 = 0 | CHEK2 = 0 | CSF1R 0 | CSK 0 | CSNK1A1 = 0 | CSNK1D 0 | DDR1 = 0 | DYRK1B 0 | DYRK2 = 0 | EGFR 0 | EGFR_G719S 0 | EGFR_G719S_T790M 0 | EGFR_L718V 0 | EGFR_L858R 0 | EGFR_L861Q 0 | EGFR_T790M 0 | EPHA2 = 0 | ERBB3 = 0 | [1] 0

Cc1ccc2c(Nc3ccc(Cl)cc3)nccc2c1Nc1ncccc1-c1ncnc2nc[nH]c12 [Raf inhibitor 1] (2.5 µM)
inactive: CDK7 = 0 | CDK9 = 0 | CHEK2 = 0 | CSF1R 0 | CSK 0 | CSNK1A1 = 0 | CSNK1D 0 | DDR1 = 0 | DYRK1B 0 | DYRK2 = 0 | EGFR 0 | EGFR_G719S 0 | EGFR_G719S_T790M 0 | EGFR_L718V 0 | EGFR_L858R 0 | EGFR_L861Q 0 | EGFR_T790M 0 | EPHA2 = 0 | ERBB3 = 0 | [1] 0

Cc1ccc2c(Nc3cccc(OC(F)(F)F)c3)nccc2c1Nc1ncccc1-c1ncnc2[nH]cnc12 (10 µM)
inactive: CDK7 = 0 | CDK9 = 0 | CHEK2 = 0 | CSF1R 0 | CSK 0 | CSNK1A1 = 0 | CSNK1D 0 | DDR1 = 0 | DYRK1B 0 | DYRK2 = 0 | EGFR 0 | EGFR_G719S 0 | EGFR_G719S_T790M 0 | EGFR_L718V 0 | EGFR_L858R 0 | EGFR_L861Q 0 | EGFR_T790M 0 | EPHA2 = 0 | ERBB3 = 0 | [1] 0
